Results published in PubChem BioAssay AID493014 (National Center for Advancing Translational Sciences (NCATS), 2011).
The list shows a part of the results. Shown are side measurements of this screen, not its main read-out; they come without a call. The list favours compounds with an active or inconclusive main result. The note in brackets gives the kind of curve behind each potency; many fits are weak.

Assay: qHTS Assay to Find Inhibitors of Chronic Active B-Cell Receptor Signaling
Details: ABC-DLBCL IkBa-CBG/CBR reporter, luminescence ratio (green luciferase fused to IkBa over red control in TMD8 lymphoma cells), 4 h
Procedure, shortened: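 Concentration-response series (up to 46 uM) were applied to TMD8 dual-reporter cells for 4 h at 37C with doxycycline. Green/red ratio, after filter-overlap correction, defined %Activity; red signal alone was normalised to basal cells and zero luminescence.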

[1] = measured here: CBR red luminescence, cell number
[2] = measured here: IkBa-CBG green luminescence

O=C(NC(=S)NNC(=O)c1ccccc1[N+](=O)[O-])c1ccccc1
AC50 [1]: 20.6 µM [falling, partial curve]

CCOC(=O)C(NC(=O)c1cccc(Cl)c1)(Nc1sc2c(c1C(N)=O)CCC2)C(F)(F)F (configuration not stated)
AC50 [2]: 18.4 µM [falling, single point]

CCOC(=O)C1CCCN(c2ccc(NC(=O)c3snc4c(=O)[nH]c(C)nc34)cc2)C1 (configuration not stated)
AC50 [1]: 0.794 µM [falling, partial curve, poor fit]

COc1ccccc1NC(=S)N(Cc1ccco1)Cc1cc2ccc(C)c(C)c2[nH]c1=O
AC50 [1]: 18.4 µM [rising, partial curve]

COc1ccc(C(=O)CSc2nnc(Cn3nnc4ccccc43)n2C)cc1
AC50 [1]: 20.6 µM [rising, partial curve, poor fit]

Cc1cc2cc(C#N)c(SCC(=O)Nc3nonc3C)nc2cc1C
AC50 [1]: 0.112 µM [rising, full curve, poor fit]

CCCN1CCN(CCCNC(=O)CN2C(=O)COc3ccccc32)CC1
AC50 [1]: 32.6 µM [falling, single point]

CC1CCc2c(sc(/N=C/N(C)C)c2C#N)C1 (configuration not stated)
AC50 [2]: 35.5 µM [falling, single point]

C=CCn1c2ccccc2c(=O)c2cc(C#CC3(O)CCCCC3)ccc21
AC50 [1]: 3.98 µM [falling, full curve, poor fit]

CCOC(=O)C(C)n1nc(C)c2sc3ccccc3c2c1=O (configuration not stated)
AC50 [1]: 3.55 µM [rising, single point]

Cc1ccc(Cn2ncc3c(NCCCN(C)C)ncnc32)cc1
AC50 [1]: 2.51 µM [falling, single point]

CCOC(=O)C1=C(C)NC(=O)NC1c1cc(Br)c(O)c(OC)c1 (configuration not stated)
AC50 [1]: 29.1 µM [rising, single point]

COc1ccc(C)cc1N(CC(=O)NC1CCCC1)C(=O)CCC(=O)Nc1nc(C)cs1
AC50 [1]: 11.2 µM [falling, partial curve]

C[C@H]1COC(=O)[C@H](CC(=O)OC(C)(C)C)C/C=C\C[C@@H](CC(=O)N[C@@H](CO)Cc2ccccc2)C(=O)N1
AC50 [1]: 0.092 µM [rising, full curve, poor fit]

COc1ccc(CNC(=O)CN(Cc2ccccc2Cl)C(=O)c2csnn2)cc1
AC50 [1]: 14.1 µM [rising, single point]

COc1ccc(-n2ncc3c(N4CCCCC4)ncnc32)cc1
AC50 [1]: 20.6 µM [falling, single point]

COc1ccc(CNC(=O)c2cnn(-c3ccc(C)cc3)c2-n2cccc2)cc1OC
AC50 [1]: 3.16 µM [rising, single point]

COc1cc(NC(=O)CSc2nc(C)cs2)cc(OC)c1
AC50 [1]: 3.66 µM [falling, single point]

CC1=NNC(=O)C1CCC(=O)N/N=C/C(Br)=C/c1ccccc1 (configuration not stated)
AC50 [1]: 20.6 µM [falling, single point]

Cc1cc2cc(CCNC(=O)c3cccs3)c(=O)[nH]c2cc1C
AC50 [1]: 1.84 µM [rising, full curve]

COc1cc(CNC2CCCCC2)c(Br)cc1OC1CCCC1
AC50 [1]: 14.1 µM [falling, partial curve, poor fit]

S=c1[nH]nc(C2CCCCC2)n1/N=C/c1ccccc1Br
AC50 [1]: 12.6 µM [rising, single point]

Cc1sc(-c2ccncc2)nc1OC(=O)c1ccccc1
AC50 [1]: 23.1 µM [falling, partial curve]

CCOc1ccc(NC(=S)NC(C)C(c2ccccc2)N2CCN(C)CC2)cc1 (configuration not stated)
AC50 [1]: 7.94 µM [falling, partial curve]

O=C(Nc1cccc(Cl)c1)Nc1csc([N+](=O)[O-])c1
AC50 [1]: 35.5 µM [falling, single point] | AC50 [2]: 12.6 µM [rising, partial curve, poor fit]

O=C(Nc1ccc(CN2CCOCC2)cc1)c1ccc(-c2ccc(Br)cc2)o1
AC50 [1]: 20.6 µM [falling, single point]

COc1ccc(NC(=S)Nc2ccccn2)c(OC)c1
AC50 [2]: 18.4 µM [falling, partial curve, poor fit]

Cc1ccc(CNC(=O)c2cc(C3CC3)nc3c2cnn3C(C)C)cc1
AC50 [1]: 14.6 µM [falling, partial curve]

O=C(NC(=S)N1CCc2ccccc21)c1ccc(Br)o1
AC50 [1]: 11.2 µM [rising, partial curve, poor fit]

O=S(=O)(Cc1ccccc1)N=Nc1c(O)[nH]c2ccc(Br)cc12
AC50 [1]: 35.5 µM [rising, single point] | AC50 [2]: 35.5 µM [falling, single point]

COc1ccc(NS(=O)(=O)c2ccc(NC(C)=O)cc2)c(OC)c1
AC50 [1]: 3.16 µM [falling, partial curve, poor fit]

COC(C[C@@H](O)C[C@H](O)[C@@H](C)OCc1ccccc1)OC
AC50 [1]: 0.562 µM [rising, partial curve, poor fit]

CCc1cc(=O)[nH]c(SCc2ccc(C)cc2)n1
AC50 [1]: 20 µM [falling, single point]

CCCCOc1ccccc1C1NC(=O)CCC1[N+](=O)[O-] (configuration not stated)
AC50 [1]: 31.6 µM [rising, partial curve, poor fit]

Cc1c(OCC(=O)NCCCN2CCCC2=O)ccc2c3c(c(=O)oc12)CCCC3
AC50 [1]: 35.5 µM [rising, single point]

CN(C(=O)c1cccc(N2C(=O)C3CC=CCC3C2=O)c1)C1CCCCC1 (configuration not stated)
AC50 [1]: 35.5 µM [falling, single point]

CCn1c(SCC(=O)Nc2ccc(OC)c(OC)c2)nnc1-c1cccs1
AC50 [1]: 35.5 µM [falling, single point]

COc1ccc(C(=O)c2coc3ccc(OC(C)=O)cc23)cc1
AC50 [1]: 0.501 µM [rising, partial curve, poor fit]

CCOC(=O)c1c(C)n(C)c2ccc(OC)c(NC(=O)CN3CCCCC3)c12
AC50 [1]: 11.2 µM [rising, single point]

O=[N+]([O-])c1cccc(N/N=C/c2ccc(N3CCOCC3)cc2)c1
AC50 [1]: 1 µM [rising, full curve, poor fit]

CC[C@]1(C(=O)OC)[C@H]2C(=O)N(C)C(=O)[C@H]2[C@H]2CN=C(SCc3ccc(C(=O)OC)cc3)N21
AC50 [1]: 29.1 µM [rising, single point] | AC50 [2]: 25.9 µM [falling, single point]

COc1ccc2c(c1OC)C(=O)N(c1ccc(O)cc1)C2
AC50 [2]: 10 µM [falling, partial curve, poor fit]

CCC(C)NC(=O)[C@H](CSCc1ccccc1)N1Cc2ccccc2C1=O (some centres not stated)
AC50 [1]: 6.51 µM [rising, single point]

O=[N+]([O-])c1cc(/C=N\Nc2nc(-c3ccccc3)cs2)ccc1O
AC50 [1]: 12.6 µM [falling, single point]

COc1ccc(CCN(C)Cc2c(O)ccc3ccccc23)cc1OC
AC50 [1]: 11.2 µM [falling, partial curve]

COc1ccccc1CC(=O)Nc1ccc2nc(C)sc2c1
AC50 [1]: 18.4 µM [falling, partial curve, poor fit]

CCCCc1c(C)c(C#N)c2nc3ccccc3n2c1Cl
AC50 [1]: 0.092 µM [falling, full curve, poor fit]

CSCCC(NS(=O)(=O)/C=C/c1ccccc1)C(=O)NCCc1ccc(S(N)(=O)=O)cc1 (configuration not stated)
AC50 [1]: 6.31 µM [rising, single point]

Cc1oc(-c2ccccc2)nc1CS(=O)CC(=O)NC1CCCCCC1 (configuration not stated)
AC50 [1]: 35.5 µM [falling, single point]

Cc1ccc(NC(=O)C(=S)NCc2ccco2)cc1
AC50 [1]: 0.282 µM [rising, partial curve, poor fit]

O=C1c2ccccc2C(Nc2ccc3c(c2)OCCO3)N1Cc1ccco1 (configuration not stated)
AC50 [1]: 6.51 µM [falling, single point]

CCCCn1c(-c2ccccc2)nnc1-c1ccccc1
AC50 [1]: 6.51 µM [rising, partial curve]

COc1cccc2cc(C(=O)NCc3ccco3)c(=Nc3ccc(C(=O)O)cc3)oc12
AC50 [1]: 0.411 µM [falling, full curve, poor fit]

Cc1nc(CS(=O)(=O)c2ccccn2)sc1C(=O)NNC(=O)c1ccccc1
AC50 [1]: 10 µM [falling, partial curve, poor fit]

COc1ccc(S(=O)(=O)NCc2ccccn2)cc1NC(=O)c1ccccc1C
AC50 [1]: 7.31 µM [rising, partial curve] | AC50 [2]: 8.2 µM [falling, partial curve]

Oc1ccc(/C=N/n2c(-c3ccco3)csc2=Nc2cccnc2)c(O)c1
AC50 [1]: 9.2 µM [falling, partial curve, poor fit]

CN(C)c1ccc(/C=C/C(O)=C2/C(=O)N(C)C3(C)CC2c2ccccc2O3)cc1 (configuration not stated)
AC50 [1]: 14.6 µM [rising, single point]

CCCCCCNC(=O)N[C@@H](C(=O)NCCC[C@H]1CN2C(=NC[C@@H]2Cc2ccccc2)N1CCc1cccc(OC)c1)C(C)C
AC50 [1]: 35.5 µM [rising, single point] | AC50 [2]: 25.1 µM [falling, single point]

O=C(Nc1ccc(N2CCOCC2)c(Cl)c1)c1ccccc1F
AC50 [1]: 13 µM [falling, partial curve, poor fit]

NNC(=O)c1ccc(N2CCCCCC2)c([N+](=O)[O-])c1
AC50 [1]: 7.94 µM [falling, partial curve]

Cc1sc(NC(=O)C2=COCCO2)nc1-c1ccc(Cl)cc1
AC50 [1]: 0.461 µM [rising, full curve, poor fit]

COc1ccccc1NC(=O)Nc1nnc(CC(=O)Nc2cccc(C)c2)s1
AC50 [1]: 10 µM [falling, partial curve, poor fit]
